Assay results as given in article PMC10518977.
These are yes or no findings as the source states them, for the method shown. Binding seen in cells or lysates may run through a third protein. Some binding calls cover weakened binding; strength is not graded here. For some assays here: Sequences can lack the tags named with a protein. Each block holds one molecule with its values, some of them ahead of it.

Assays:
[1] = molecular target: T1, Glutathione peroxidase 2 (GPX2), endogenous (human (endogenous in HCT116, HT29, HCT15, LS174T)) (UniProt P18283); test: co-IP; endogenous proteins in HCT15 and LS174T cells; NP-40 lysis buffer, primary antibody overnight at 4°C, Protein A/G PLUS-Agarose; IP of ACVRL1 or of GPX2, IgG as negative control; also in cells with knockdown of USP15
T1 sequence: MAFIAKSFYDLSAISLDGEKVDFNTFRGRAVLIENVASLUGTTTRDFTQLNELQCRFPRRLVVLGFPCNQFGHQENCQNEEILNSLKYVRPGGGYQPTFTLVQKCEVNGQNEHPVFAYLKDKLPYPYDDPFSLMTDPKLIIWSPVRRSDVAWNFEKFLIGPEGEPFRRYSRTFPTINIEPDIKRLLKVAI

[2] = molecular target: Activin A receptor-like type 1 (ACVRL1), endogenous (human (endogenous in HCT15, LS174T)) (UniProt P37023); test: as above
[3] = molecular target: Full-length ACVRL1-Flag (Activin A receptor-like type 1) (UniProt P37023); test: co-IP; HCT116 and HT29 cells transfected with Flag-ACVRL1; anti-DYKDDDDK magnetic agarose; western blot for GPX2
[4] = molecular target: T2, Truncated ACVRL1(282-503aa)-Flag (UniProt P37023); test: co-IP; ACVRL1-Flag constructs and GPX2-HA co-transfected into LS174T and HCT15 cells; IP of Flag with subsequent western blot
T2 sequence: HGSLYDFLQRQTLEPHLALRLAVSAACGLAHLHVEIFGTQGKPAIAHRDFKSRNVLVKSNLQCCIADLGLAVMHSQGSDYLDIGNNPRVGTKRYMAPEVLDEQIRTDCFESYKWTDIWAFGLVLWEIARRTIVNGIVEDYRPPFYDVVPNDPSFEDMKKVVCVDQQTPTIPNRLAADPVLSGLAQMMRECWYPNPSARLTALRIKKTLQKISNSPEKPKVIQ

[5] = molecular target: Activin A receptor-like type 1 (ACVRL1), endogenous (human (endogenous in HCT15, LS174T)) (UniProt P37023); test: co-IP; LS174T cells (endogenous by the legend; the text says ACVRL1 and GPX2 were overexpressed separately); also CRC cells with shNTC, shACVRL1 or knockdown of GPX2

binding [1]: binds
Molecule: Activin A receptor-like type 1 (ACVRL1), endogenous (from UniProt P37023 22-503)

binding [5]: binds
B3: Ubiquitin-specific peptidase 15 (USP15), endogenous (enzyme, UniProt Q9Y4E8 1-981)
chain: MAEGGAADLDTQRSDIATLLKTSLRKGDTWYLVDSRWFKQWKKYVGFDSWDKYQMGDQNVYPGPIDNSGLLKDGDAQSLKEHLIDELDYILLPTEGWNKLVSWYTLMEGQEPIARKVVEQGMFVKHCKVEVYLTELKLCENGNMNNVVTRRFSKADTIDTIEKEIRKIFSIPDEKETRLWNKYMSNTFEPLNKPDSTIQDAGLYQGQVLVIEQKNEDGTWPRGPSTPKSPGASNFSTLPKISPSSLSNNYNNMNNRNVKNSNYCLPSYTAYKNYDYSEPGRNNEQPGLCGLSNLGNTCFMNSAIQCLSNTPPLTEYFLNDKYQEELNFDNPLGMRGEIAKSYAELIKQMWSGKFSYVTPRAFKTQVGRFAPQFSGYQQQDCQELLAFLLDGLHEDLNRIRKKPYIQLKDADGRPDKVVAEEAWENHLKRNDSIIVDIFHGLFKSTLVCPECAKISVTFDPFCYLTLPLPMKKERTLEVYLVRMDPLTKPMQYKVVVPKIGNILDLCTALSALSGIPADKMIVTDIYNHRFHRIFAMDENLSSIMERDDIYVFEININRTEDTEHVIIPVCLREKFRHSSYTHHTGSSLFGQPFLMAVPRNNTEDKLYNLLLLRMCRYVKISTETEETEGSLHCCKDQNINGNGPNGIHEEGSPSEMETDEPDDESSQDQELPSENENSQSEDSVGGDNDSENGLCTEDTCKGQLTGHKKRLFTFQFNNLGNTDINYIKDDTRHIRFDDRQLRLDERSFLALDWDPDLKKRYFDENAAEDFEKHESVEYKPPKKPFVKLKDCIELFTTKEKLGAEDPWYCPNCKEHQQATKKLDLWSLPPVLVVHLKRFSYSRYMRDKLDTLVDFPINDLDMSEFLINPNAGPCRYNLIAVSNHYGGMGGGHYTAFAKNKDDGKWYYFDDSSVSTASEDQIVSKAAYVLFYQRQDTFSGTGFFPLDRETKGASAATGIPLESDEDSNDNDNDIENENCMHTN

Continued, molecule first:

B1: Glutathione peroxidase 2 (GPX2), endogenous (enzyme, UniProt P18283 1-190)
chain: MAFIAKSFYDLSAISLDGEKVDFNTFRGRAVLIENVASLUGTTTRDFTQLNELQCRFPRRLVVLGFPCNQFGHQENCQNEEILNSLKYVRPGGGYQPTFTLVQKCEVNGQNEHPVFAYLKDKLPYPYDDPFSLMTDPKLIIWSPVRRSDVAWNFEKFLIGPEGEPFRRYSRTFPTINIEPDIKRLLKVAI
binding [2]: binds
binding [3]: binds

B2: GPX2-HA (enzyme, UniProt P18283 1-190)
chain: MAFIAKSFYDLSAISLDGEKVDFNTFRGRAVLIENVASLUGTTTRDFTQLNELQCRFPRRLVVLGFPCNQFGHQENCQNEEILNSLKYVRPGGGYQPTFTLVQKCEVNGQNEHPVFAYLKDKLPYPYDDPFSLMTDPKLIIWSPVRRSDVAWNFEKFLIGPEGEPFRRYSRTFPTINIEPDIKRLLKVAI
binding [4]: binds
